Data as given in PubChem BioAssay AID1224826 (NIAID, 2016).
Purpose: 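Knock-downs that raise or lower Tnf reporter signal after endotoxin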 (primary screen). Cell system: RAW264.7 G9 macrophages from mouse bearing reporters for p65 (GFP) and the Tnf promoter (mCherry). Knock-down reagent: siRNA pool against mouse genes, 100 nM. Duration: 16 h of LPS stimulation, after 2 days of siRNA transfection. Treatment: bacterial lipopolysaccharide (Salmonella minnesota R595), 10 ng/ml. Detection: 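Nuclear mCherry signal of the Tnf promoter reporter measured by imaging after background removal, scaled to each plate median and turned into robust z-scores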. Direction: Tnf reporter robust z-score: higher = stronger Tnf promoter reporter signal after LPS. Active means: 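a well counts as active at a score of -1.3 or below (Tlr4 knock-down control median) or above 3 (raised signal); controls and wells holding fewer than 50 cells are excluded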. Calls: active = Tnf reporter clearly lowered or raised; inactive = no clear change in Tnf reporter.
In all, the deposit lists about 17,000 reagents; below is a part drawn at random. Of all reagents, about 1,110 (6.6%) are marked active. 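Active means lowered or raised reporter signal; replicate intensities are raw and not normalised per plate.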 Unmarked entries are inactive. The numbers tell different reagents against one gene apart. Further read-outs or replicates are left out here.

The first 2 records, ahead of the listing:
gene | reagent no. | Tnf reporter robust z-score | fewer than 50 cells in well
Sypl1 (GeneID 19027) | 1 | 1.95 | enough cells in well
Tg (GeneID 21819) | 1 | -0.96 | enough cells in well

Results, from the start:
gene | reagent no. | Tnf reporter robust z-score | fewer than 50 cells in well
Sypl1 (GeneID 19027) | 1 | 1.95 | enough cells in well
Tg (GeneID 21819) | 1 | -0.96 | enough cells in well
Ppp1ca (GeneID 19045) | 1 | 0.64 | enough cells in well
Fam110a (GeneID 73847) | 1 | -0.03 | enough cells in well
Ssbp2 (GeneID 66970) | 1 | – | fewer than 50 cells per well; well left out of calls
Or7a39 (GeneID 257734) | 1 | 0.26 | enough cells in well
Agxt (GeneID 11611) | 1 | -0.22 | enough cells in well
Sema6c (GeneID 20360) | 1 | – | fewer than 50 cells per well; well left out of calls
Vwa5b2 (GeneID 328643) | 1 | 1.79 | enough cells in well
Vwa5b2 (GeneID 328643) | 2 | 1.6 | enough cells in well
Nap1l2 (GeneID 17954) | 1 | 0.59 | enough cells in well
Cdipt (GeneID 52858) | 1 | -0.11 | enough cells in well
Aggf1 (GeneID 66549) | 1 | 0.05 | enough cells in well
Tle3 (GeneID 21887) | 1 | 0.66 | enough cells in well
Smim5 (GeneID 66528) | 1 | – | fewer than 50 cells per well; well left out of calls
Prdm5 (GeneID 70779) | 1 | -0.09 | enough cells in well
Mtrex (GeneID 72198) | 1 | – | fewer than 50 cells per well; well left out of calls
Nlgn3 (GeneID 245537) | 1 | -0.94 | enough cells in well
Sall4 (GeneID 99377) | 1 | 0.49 | enough cells in well
A630038E17Rik (GeneID 219065) | 1 | 0.49 | enough cells in well
Dennd4a (GeneID 102442) | 1 | 1.29 | enough cells in well
Dennd4a (GeneID 102442) | 2 | 0.58 | enough cells in well
Tsga8 (GeneID 100502723) | 1 | -0.26 | enough cells in well
Ddx24 (GeneID 27225) | 1 | 1.78 | enough cells in well
Vmn1r11 (GeneID 113860) | 1 | 2.78 | enough cells in well
Slfn10 (GeneID 237887) | 1 | – | fewer than 50 cells per well; well left out of calls
Hbb-b2 (GeneID 15130) | 1 | 1.18 | enough cells in well
Serpinb8 (GeneID 20725) | 1 | – | fewer than 50 cells per well; well left out of calls
Nts (GeneID 67405) | 1 | 0.65 | enough cells in well
Ogfod3 (GeneID 66179) | 1 | 2.46 | enough cells in well
Dynlt2b (GeneID 66061) | 1 | 0.86 | enough cells in well
Coq10b (GeneID 67876) | 1 | -1.24 | enough cells in well
H2-Q2 (GeneID 15013) | 1 | -0.72 | enough cells in well
Kics2 (GeneID 270802) | 1 | -0.19 | enough cells in well
Tmem50b (GeneID 77975) | 1 | -0.67 | enough cells in well
D130060J02Rik (GeneID 320266) | 1 | 0.33 | enough cells in well
Gtpbp4 (GeneID 69237) | 1 | 0.53 | enough cells in well
Or51aa5 (GeneID 258722) | 1 | 0.85 | enough cells in well
Lsm7 (GeneID 66094) | 1 | -1.64 (active) | enough cells in well
Dmac2l (GeneID 68055) | 1 | -0.6 | enough cells in well
Tor1a (GeneID 30931) | 1 | -0.61 | enough cells in well
Wfdc21 (GeneID 66107) | 1 | 2.77 | enough cells in well
H1f3 (GeneID 14957) | 1 | -0.36 | enough cells in well
Snap23 (GeneID 20619) | 1 | -0.2 | enough cells in well
H4c9 (GeneID 319158) | 1 | 1.68 | enough cells in well
Notch4 (GeneID 18132) | 1 | -0.19 | enough cells in well
Prpf8 (GeneID 192159) | 1 | -0.1 | enough cells in well
Galr1 (GeneID 14427) | 1 | 0.53 | enough cells in well
Ifi205 (GeneID 226695) | 1 | 1.87 | enough cells in well
Or52a5b (GeneID 18370) | 1 | 1.17 | enough cells in well
Slc7a13 (GeneID 74087) | 1 | -0.19 | enough cells in well
Prps1 (GeneID 19139) | 1 | 0.62 | enough cells in well
Plxna4os2 (GeneID 330283) | 1 | -0.39 | enough cells in well
Or12j3 (GeneID 258512) | 1 | 0.59 | enough cells in well
Gstp2 (GeneID 14869) | 1 | -0.43 | enough cells in well
Eef1akmt1 (GeneID 68043) | 1 | 1.62 | enough cells in well
Hivep2 (GeneID 15273) | 1 | -1.72 (active) | enough cells in well
Crebzf (GeneID 233490) | 1 | 0.7 | enough cells in well
